Data from paper PMC9968304.
These are yes or no findings as the source states them, for the method shown. Some binding calls cover weakened binding; strength is not graded here.

Experiments:
Experiment in all cases: cryo-EM structure; single particle cryoEM, anaerobic grids; subset of particles of the MoFe^ΔNifV sample purified from A. vinelandii DJ605 with endogenous NafT bound; 50 mM Tris-HCl, 200 mM NaCl, 5 mM sodium dithionite, pH 7.8; 2.71 Å
[1] = molecular target: T1, MoFe^ΔNifV (homocitrate-deficient MoFe-protein purified from the homocitrate synthase (nifV) deletion strain of A. vinelandii) (Azotobacter vinelandii) (UniProt P07328+P07329)
T1 sequence 1: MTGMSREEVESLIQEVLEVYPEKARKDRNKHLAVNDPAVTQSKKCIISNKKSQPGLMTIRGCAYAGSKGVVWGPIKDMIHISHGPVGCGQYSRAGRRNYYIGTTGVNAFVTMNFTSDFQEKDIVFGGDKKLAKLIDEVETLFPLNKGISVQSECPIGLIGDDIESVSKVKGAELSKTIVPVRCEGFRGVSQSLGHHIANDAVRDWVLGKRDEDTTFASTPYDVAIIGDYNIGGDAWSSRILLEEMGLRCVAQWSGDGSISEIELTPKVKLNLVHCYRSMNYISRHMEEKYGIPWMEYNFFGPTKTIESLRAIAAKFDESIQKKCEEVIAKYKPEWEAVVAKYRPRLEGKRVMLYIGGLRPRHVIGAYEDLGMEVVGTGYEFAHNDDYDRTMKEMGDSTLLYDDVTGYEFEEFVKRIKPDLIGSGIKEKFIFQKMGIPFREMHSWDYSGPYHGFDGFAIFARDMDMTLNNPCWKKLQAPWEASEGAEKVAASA
T1 sequence 2: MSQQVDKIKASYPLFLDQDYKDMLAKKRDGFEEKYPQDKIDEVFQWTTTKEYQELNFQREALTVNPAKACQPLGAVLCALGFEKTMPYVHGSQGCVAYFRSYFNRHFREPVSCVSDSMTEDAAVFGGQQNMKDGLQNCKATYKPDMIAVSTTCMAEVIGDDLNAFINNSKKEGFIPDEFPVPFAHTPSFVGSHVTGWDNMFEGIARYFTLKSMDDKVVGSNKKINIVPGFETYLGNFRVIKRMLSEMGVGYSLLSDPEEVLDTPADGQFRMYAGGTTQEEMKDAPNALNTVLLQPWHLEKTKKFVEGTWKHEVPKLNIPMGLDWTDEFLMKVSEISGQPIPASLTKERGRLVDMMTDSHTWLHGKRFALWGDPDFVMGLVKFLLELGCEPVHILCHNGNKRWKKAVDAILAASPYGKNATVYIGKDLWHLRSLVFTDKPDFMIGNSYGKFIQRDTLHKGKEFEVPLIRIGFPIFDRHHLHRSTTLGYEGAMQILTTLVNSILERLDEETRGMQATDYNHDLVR

[2] = molecular target: T2, MoFe-protein α-subunit (NifD) (Azotobacter vinelandii) (UniProt P07328)
T2 sequence: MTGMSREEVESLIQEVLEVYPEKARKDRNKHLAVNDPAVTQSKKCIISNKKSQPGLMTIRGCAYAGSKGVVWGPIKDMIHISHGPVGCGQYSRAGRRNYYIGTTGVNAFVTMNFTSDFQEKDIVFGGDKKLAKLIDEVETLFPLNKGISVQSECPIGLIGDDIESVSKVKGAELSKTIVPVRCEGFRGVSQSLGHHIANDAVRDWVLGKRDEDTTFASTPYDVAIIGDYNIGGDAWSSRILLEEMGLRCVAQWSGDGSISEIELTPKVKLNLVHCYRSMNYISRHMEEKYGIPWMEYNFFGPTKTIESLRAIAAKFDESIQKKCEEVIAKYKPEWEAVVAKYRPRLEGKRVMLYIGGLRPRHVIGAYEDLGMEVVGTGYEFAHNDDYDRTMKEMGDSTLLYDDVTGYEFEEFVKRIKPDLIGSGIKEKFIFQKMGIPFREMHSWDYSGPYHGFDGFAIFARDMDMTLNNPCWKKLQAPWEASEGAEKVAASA

[3] = molecular target: T3, MoFe-protein β-subunit (NifK) (Azotobacter vinelandii) (UniProt P07329)
T3 sequence: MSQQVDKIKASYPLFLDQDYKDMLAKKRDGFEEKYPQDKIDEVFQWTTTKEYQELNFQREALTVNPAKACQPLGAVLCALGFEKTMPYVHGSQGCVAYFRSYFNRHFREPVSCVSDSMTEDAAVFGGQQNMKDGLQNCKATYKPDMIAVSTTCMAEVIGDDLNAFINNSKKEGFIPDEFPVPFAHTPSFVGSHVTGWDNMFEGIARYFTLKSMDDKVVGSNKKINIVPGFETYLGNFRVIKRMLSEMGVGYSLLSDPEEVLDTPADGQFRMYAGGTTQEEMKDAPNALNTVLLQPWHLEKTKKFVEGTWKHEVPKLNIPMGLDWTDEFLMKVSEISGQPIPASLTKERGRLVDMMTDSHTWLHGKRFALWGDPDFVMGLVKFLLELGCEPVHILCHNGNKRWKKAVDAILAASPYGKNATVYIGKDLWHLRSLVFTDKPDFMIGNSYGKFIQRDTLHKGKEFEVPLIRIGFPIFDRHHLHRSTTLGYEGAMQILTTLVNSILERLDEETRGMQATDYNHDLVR

binding [1]: binds
binding [2]: binds
binding [3]: binds
B1: NafT (nitrogenase-associated factor protein T), product of the Avin_01560 gene (protein, UniProt C1DH13 1-135)
chain: MSWRILLCHKHPVSARLRFLIPTGGGVVLPQTLPRLAVIAEDQEAPVQCHPASALRALQETMALGWQLELIGEFRLNMEVPGQIMPIYLAALAGHELPPPPEGTRWIELTQSIGMPWLDRELLRRVYEELIGFGC
